Experimental findings from article PMC8099881 are described below.

Amino acid sequences for entries named in this document (tags omitted).
UniProt P61073: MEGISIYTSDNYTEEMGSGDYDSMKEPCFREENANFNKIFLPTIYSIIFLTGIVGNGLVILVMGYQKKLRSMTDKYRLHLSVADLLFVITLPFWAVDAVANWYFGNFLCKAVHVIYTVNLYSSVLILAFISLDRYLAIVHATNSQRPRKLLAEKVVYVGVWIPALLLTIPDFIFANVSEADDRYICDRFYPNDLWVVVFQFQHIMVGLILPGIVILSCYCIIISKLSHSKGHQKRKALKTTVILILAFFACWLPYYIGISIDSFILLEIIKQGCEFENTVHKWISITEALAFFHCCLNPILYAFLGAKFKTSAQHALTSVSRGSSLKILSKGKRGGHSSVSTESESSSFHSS

These are yes or no findings as the source states them, for the method shown. In cells and extracts the contact can be indirect. Some results given as binding are weak or reduced against the parent protein; the word gives no strength. Where a sequence is shown, tags or fusion partners need not be part of it.

This assay concerns the target C-X-C chemokine receptor type 4 (CXCR4) (human (endogenous in HUVEC)) (UniProt P61073). The assay is described as follows: co-IP; HUVEC membrane proteins (Mem-PER extraction) incubated with or without recombinant GST-SDF4; immunoprecipitated with antibodies against SDF4, GST or CXCR4 at 4 °C for at least 4 h, protein-A/G agarose, washed three times with modified RIPA buffer, western blot; only the binder purified. For orientation: Immunoblotting shows a protein as a band on a membrane.

B1: GST-SDF4 (recombinant stromal-cell-derived factor 4) (protein, UniProt Q9BRK5 37-362)
chain: RPANHSSTRERVANREENEILPPDHLNGVKLEMDGHLNRGFHQEVFLGKDLGGFDEDAEPRRSRRKLMVIFSKVDVNTDRKISAKEMQRWIMEKTAEHFQEAMEESKTHFRAVDPDGDGHVSWDEYKVKFLASKGHSEKEVADAIRLNEELKVDEETQEVLENLKDRWYQADSPPADLLLTEEEFLSFLHPEHSRGMLRFMVKEIVRDLDQDGDKQLSVPEFISLPVGTVENQQGQDIDDNWVKDRKKEFEELIDSNHDGIVTAEELESYMDPMNEYNALNEAKQMIAVADENQNHHLEPEEVLKYSEFFTGSKLVDYARSVHEEF
In the case of B1, the binding entry is “binds”.
